Experimental data from publication PMC11301854.
Results are given in words; binding and its absence hold for the method and conditions named. In cells and extracts the contact can be indirect. Some binding calls cover weakened binding; strength is not graded here.

What was measured:
[1] = target: Flag-NOTCH1 (human), from the p3xFlag-CMV-NOTCH1 plasmid (human) (UniProt P46531); assay: co-IP; exogenous: lysates (IP lysis buffer) of transfected cells, immunoprecipitated with 3 ug anti-HA or anti-Flag at 4 °C overnight, Protein A/G magnetic beads, Western blot
[2] = target: NOTCH1, endogenous (human (endogenous in SW837, LOVO or 293T cells)) (UniProt P46531); assay: co-IP; endogenous proteins: cell lysates (IP lysis buffer), immunoprecipitated with the indicated antibodies at 4 °C overnight, Protein A/G magnetic beads, Western blot

| binding [1] | binding [2] | Substance |
| --- | --- | --- |
| binds |  | Vasorin (VASN) with an added HA tag (from UniProt Q6EMK4 24-673) |
|  | binds | Vasorin (VASN), endogenous (from UniProt Q6EMK4 24-673) |
